No constants are given. Whether binding was seen depends on the method and setting. In cells and extracts the contact can be indirect. Some results given as binding are weak or reduced against the parent protein; the word gives no strength. For some assays here: Where a sequence is shown, tags or fusion partners need not be part of it.
T1: HNF4α, endogenous in MHCC-L cells (human (endogenous in MHCC-L)) (UniProt P41235)
T1 sequence: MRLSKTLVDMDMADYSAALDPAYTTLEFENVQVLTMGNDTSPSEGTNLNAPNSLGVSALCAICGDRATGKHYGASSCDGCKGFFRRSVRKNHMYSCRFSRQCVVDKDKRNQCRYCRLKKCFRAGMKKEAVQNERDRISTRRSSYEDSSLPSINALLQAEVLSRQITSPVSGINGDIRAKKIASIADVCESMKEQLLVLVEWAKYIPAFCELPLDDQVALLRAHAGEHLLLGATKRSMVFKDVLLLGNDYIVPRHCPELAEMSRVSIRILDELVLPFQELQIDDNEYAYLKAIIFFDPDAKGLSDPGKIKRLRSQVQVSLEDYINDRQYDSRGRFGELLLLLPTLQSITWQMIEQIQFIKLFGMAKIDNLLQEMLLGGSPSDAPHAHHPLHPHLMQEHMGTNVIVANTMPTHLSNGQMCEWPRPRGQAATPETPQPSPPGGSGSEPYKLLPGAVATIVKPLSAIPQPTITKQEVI

The chains behind the UniProt entries cited, without tags or fusion partners. Where a name states a change or a piece, a line headed by the entry shows the natural chain unless it says otherwise.
UniProt Q96LD4: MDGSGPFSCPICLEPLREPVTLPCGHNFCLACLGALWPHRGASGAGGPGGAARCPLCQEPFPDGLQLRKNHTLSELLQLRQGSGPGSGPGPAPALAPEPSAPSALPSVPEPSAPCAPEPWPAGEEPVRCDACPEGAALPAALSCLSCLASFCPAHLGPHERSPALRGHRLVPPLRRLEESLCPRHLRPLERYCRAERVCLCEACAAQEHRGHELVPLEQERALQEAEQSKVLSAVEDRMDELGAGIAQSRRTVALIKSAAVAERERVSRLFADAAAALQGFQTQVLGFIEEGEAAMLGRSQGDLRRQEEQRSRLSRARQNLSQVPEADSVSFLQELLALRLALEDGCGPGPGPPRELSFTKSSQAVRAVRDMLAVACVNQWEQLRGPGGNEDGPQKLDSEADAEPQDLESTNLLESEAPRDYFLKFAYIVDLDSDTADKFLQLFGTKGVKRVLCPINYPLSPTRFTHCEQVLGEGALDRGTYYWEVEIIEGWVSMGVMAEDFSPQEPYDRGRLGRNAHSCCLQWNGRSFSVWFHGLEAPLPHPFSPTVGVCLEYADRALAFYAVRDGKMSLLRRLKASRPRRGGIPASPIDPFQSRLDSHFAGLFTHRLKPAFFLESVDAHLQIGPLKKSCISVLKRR

T2: V5-tagged HNF4α (hepatocyte nuclear factor 4alpha), full length (amino acids 1–474) (human) (UniProt P41235)
T2 sequence: T1 sequence

B1: V5-tagged HNF4α (hepatocyte nuclear factor 4alpha), full length (amino acids 1–474) (protein, UniProt P41235-1 1-474)
chain: T1 sequence

Tests used:
[1] = target: T1, HNF4α, endogenous in MHCC-L cells (human (endogenous in MHCC-L)); experiment: co-IP; endogenous; MHCC-L lysate with HNF4α antibody (or IgG) and protein G agarose at 4 °C overnight, Western blotting
[2] = target: T2, V5-tagged HNF4α (hepatocyte nuclear factor 4alpha), full length (amino acids 1–474) (human); experiment: co-IP; Hep3B cells with V5-HNF4α, endogenous TRIM47; cells treated with the indicated concentrations of CZ-2401 for 24 h
[3] = target: Flag-tagged TRIM47 (tripartite motif 47), full length (amino acids 1–638) (human) (UniProt Q96LD4); experiment: co-IP; Huh7 cells transfected with Flag-TRIM47 and V5-HNF4α, Western blotting
[4] = target: Flag-tagged TRIM47 (tripartite motif 47), full length (amino acids 1–638) (human) (UniProt Q96LD4); experiment: proximity ligation; Duolink in situ PLA in Huh7 cells transfected with Flag-TRIM47 and V5-HNF4α for 48 h, fixed with 4% PFA, confocal microscopy
[5] = target: Flag-tagged TRIM47 (tripartite motif 47), full length (amino acids 1–638) (human) (UniProt Q96LD4); experiment: co-IP; HEK293T cells co-transfected with Flag-TRIM47 and V5-HNF4α (or truncations and mutants) for 48 h; IP lysis buffer; anti-Flag or anti-V5 affinity gel overnight at 4 °C; wash 20 mmol/L Tris-HCl pH 7.4, 100 mmol/L NaCl, 0.5% NP40, 0.5% Triton-X100, 10% glycerol; Western blotting; in one panel cells treated with CZ-2401 (10 μmol/L) for 24 h

| Molecule | binding [1] | binding [2] | binding [3] | binding [4] | binding [5] |
| --- | --- | --- | --- | --- | --- |
| TRIM47, endogenous (from UniProt Q96LD4-1 1-638) (enzyme) | binds | binds |  |  |  |
| B1 |  |  | binds | binds | binds |
